# The supplement of paper PMC12823440, “Inhibitors supercharge kinase turnover through native proteolytic circuits” (Nature, 2025)
# The chains behind the UniProt entries cited, without tags or fusion partners. Where a name states a change or a piece, a line headed by the entry shows the natural chain unless it says otherwise.
# UniProt P48729: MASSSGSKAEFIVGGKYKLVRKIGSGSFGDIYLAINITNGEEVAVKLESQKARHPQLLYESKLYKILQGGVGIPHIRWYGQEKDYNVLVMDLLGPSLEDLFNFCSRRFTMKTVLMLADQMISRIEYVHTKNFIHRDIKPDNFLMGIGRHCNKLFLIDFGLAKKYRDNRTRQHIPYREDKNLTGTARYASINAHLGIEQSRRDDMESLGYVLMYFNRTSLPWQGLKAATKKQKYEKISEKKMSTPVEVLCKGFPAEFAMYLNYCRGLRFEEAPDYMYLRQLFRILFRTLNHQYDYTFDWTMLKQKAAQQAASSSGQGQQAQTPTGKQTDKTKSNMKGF
# UniProt P48730: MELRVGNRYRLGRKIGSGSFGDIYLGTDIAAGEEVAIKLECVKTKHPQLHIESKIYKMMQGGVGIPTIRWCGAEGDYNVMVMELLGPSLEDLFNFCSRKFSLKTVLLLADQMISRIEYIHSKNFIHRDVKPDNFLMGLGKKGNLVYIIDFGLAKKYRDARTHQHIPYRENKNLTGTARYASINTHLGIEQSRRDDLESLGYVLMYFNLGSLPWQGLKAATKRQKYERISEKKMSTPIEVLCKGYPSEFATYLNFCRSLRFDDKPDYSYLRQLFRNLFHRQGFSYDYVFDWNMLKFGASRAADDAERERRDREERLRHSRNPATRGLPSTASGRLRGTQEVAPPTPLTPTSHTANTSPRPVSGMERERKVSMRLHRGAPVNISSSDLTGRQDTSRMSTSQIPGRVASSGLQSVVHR
# UniProt Q08345: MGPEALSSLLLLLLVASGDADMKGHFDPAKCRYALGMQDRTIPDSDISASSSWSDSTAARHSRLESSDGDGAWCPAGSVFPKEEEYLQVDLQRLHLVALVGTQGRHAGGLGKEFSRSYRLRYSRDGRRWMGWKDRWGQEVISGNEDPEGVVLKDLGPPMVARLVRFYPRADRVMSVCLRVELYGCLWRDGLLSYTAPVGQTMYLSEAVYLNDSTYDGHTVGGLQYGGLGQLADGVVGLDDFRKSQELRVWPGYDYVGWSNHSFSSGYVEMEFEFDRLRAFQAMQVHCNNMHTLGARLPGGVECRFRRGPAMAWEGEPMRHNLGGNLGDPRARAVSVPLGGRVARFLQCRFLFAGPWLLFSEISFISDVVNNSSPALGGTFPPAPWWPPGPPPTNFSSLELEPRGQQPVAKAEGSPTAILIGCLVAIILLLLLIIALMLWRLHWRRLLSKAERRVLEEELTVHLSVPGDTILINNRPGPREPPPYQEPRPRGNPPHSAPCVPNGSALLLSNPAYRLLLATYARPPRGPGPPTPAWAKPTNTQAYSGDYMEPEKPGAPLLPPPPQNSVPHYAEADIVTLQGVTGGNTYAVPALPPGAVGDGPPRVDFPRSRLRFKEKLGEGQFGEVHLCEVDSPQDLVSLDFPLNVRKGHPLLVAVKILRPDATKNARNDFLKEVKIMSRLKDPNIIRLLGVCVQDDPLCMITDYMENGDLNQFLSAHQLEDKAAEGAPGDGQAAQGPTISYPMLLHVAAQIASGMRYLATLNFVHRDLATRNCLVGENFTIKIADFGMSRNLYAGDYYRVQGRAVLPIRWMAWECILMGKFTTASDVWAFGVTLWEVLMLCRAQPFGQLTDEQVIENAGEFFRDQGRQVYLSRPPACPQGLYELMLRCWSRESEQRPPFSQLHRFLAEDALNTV
# UniProt Q9Y463, whole entry, looked up: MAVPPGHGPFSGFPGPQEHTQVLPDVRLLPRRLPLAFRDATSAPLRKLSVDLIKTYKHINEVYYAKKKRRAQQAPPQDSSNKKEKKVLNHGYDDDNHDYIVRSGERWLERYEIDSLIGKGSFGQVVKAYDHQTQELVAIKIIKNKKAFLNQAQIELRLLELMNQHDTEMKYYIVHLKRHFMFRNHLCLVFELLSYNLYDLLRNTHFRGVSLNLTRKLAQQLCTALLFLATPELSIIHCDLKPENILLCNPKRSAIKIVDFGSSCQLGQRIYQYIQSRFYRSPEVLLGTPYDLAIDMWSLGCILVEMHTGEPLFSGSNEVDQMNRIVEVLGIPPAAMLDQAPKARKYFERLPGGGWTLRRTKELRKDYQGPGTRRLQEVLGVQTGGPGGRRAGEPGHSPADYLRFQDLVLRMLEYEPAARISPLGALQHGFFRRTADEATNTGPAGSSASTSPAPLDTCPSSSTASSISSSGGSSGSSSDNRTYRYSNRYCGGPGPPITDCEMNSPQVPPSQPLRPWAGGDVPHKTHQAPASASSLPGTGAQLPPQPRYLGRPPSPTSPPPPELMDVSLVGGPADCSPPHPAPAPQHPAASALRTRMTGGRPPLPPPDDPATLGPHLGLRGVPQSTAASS
# UniProt Q92630: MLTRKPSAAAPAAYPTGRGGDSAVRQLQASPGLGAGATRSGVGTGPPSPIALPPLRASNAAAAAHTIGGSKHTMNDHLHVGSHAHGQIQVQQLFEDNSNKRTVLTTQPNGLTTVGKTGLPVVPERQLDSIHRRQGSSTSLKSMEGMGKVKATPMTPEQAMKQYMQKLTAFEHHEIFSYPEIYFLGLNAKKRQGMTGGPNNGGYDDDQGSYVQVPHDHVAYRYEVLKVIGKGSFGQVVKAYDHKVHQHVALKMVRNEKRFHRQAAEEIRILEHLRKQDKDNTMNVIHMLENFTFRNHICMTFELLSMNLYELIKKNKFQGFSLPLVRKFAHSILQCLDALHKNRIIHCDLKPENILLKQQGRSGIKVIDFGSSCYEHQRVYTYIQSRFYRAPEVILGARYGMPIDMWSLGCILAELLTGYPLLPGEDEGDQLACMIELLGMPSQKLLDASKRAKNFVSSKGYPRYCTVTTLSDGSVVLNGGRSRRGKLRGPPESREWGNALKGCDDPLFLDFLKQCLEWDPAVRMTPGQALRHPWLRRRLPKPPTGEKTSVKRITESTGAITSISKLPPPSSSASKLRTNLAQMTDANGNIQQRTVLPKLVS
# This is one part of the list. The calls rarely recur for the same compound in another form.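 Kinases were expressed as nanoluciferase fusions in K562 cells and luminescence was read every 4 h between 2 and 18 h as percent of control, DMSO set to 100% and a positive control to 0%. A time point counts as decreased when the signal drops significantly (2 sigma). The hit call is the authors' own, does not follow from the count of time points alone, and its rule is not shown.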
# Tests used:
# Experiment in all cases: number of time points (of 5) at which kinase-Nluc abundance scored as decreased, DMSO-normalised (count); higher = more persistent destabilization
# Conditions in all cases: K562; 2-18 h
# [1] = target: CSNK1A1 (UniProt P48729)
# [2] = target: CSNK1D (UniProt P48730)
# [3] = target: DDR1 (UniProt Q08345)
# [4] = target: DYRK1B (UniProt Q9Y463)
# [5] = target: DYRK2 (UniProt Q92630)
# [6] = target: EGFR (UniProt P00533)
# [7] = target: EGFR_G719S (UniProt P00533)
# [8] = target: EGFR_G719S_T790M (UniProt P00533)
# [9] = target: EGFR_L718V (UniProt P00533)
# [10] = target: EGFR_L858R (UniProt P00533)
Compound,number of time points [1],number of time points [2],number of time points [3],number of time points [4],number of time points [5],number of time points [6],number of time points [7],number of time points [8],number of time points [9],number of time points [10]
CC1=C2C(=O)O[C@@H](c3ccoc3)[C@]2(C)CCC1 [Fraxinellone] (10 µM),0,0,0,0,0,0,0,0,0,0
CC(C)=CC(=O)CCC(=O)N1CCN(Cc2cc3nc(-c4cccc5[nH]ncc45)nc(N4CCOCC4)c3s2)CC1 (10 µM),5,0,0,0,0,1,5,0,0,0
CC(C)(NS(=O)(=O)c1ccc2c(Cl)cnc(N=C(N)N)c2c1)C(=O)O (10 µM),0,0,0,0,0,0,0,0,0,0
COc1ccc(Cl)cc1NC(=O)Nc1cc(C)nc2ccccc12 (2.5 µM),0,0,0,0,0,0,0,0,0,0
Cc1ccc(-c2c(C(=O)CF)n(CCCO)c3ncnc(N)c23)cc1 (10 µM),0,0,0,0,0,0,0,0,0,0
Cc1cc2cc(Nc3ccnc(Nc4ccc5[nH]c(C)cc5c4)n3)ccc2[nH]1 (2.5 µM),0,0,1,0,0,0,0,0,0,0
COC1(c2sc3c(N4CCOCC4)nc(-c4cnc(N)nc4)nc3c2C)COC1 (2.5 µM),3,0,1,0,0,0,0,0,0,0
O=C(Nc1cc(Oc2cc(F)c(NC(=O)C3(C(=O)Nc4ccc(F)cc4)CC3)cc2F)ccn1)C1CC1 [Altiratinib] (10 µM),0,0,4,0,0,0,3,0,0,0
Cn1cc(Nc2nccc(N3C[C@H]4CC[C@@H](C3)N4C(=O)[C@@H]3CC3(F)F)n2)cn1 (10 µM),0,0,0,0,0,0,0,0,0,0
Cc1ccc(Oc2nc3cc(-c4ccc5c(ccn5C)c4)c(Cl)cc3[nH]2)cc1C(=O)O (10 µM),0,0,0,0,0,0,0,0,0,0
O=C(Nc1cccnc1)c1cc(C(=O)c2c(F)cccc2Br)c[nH]1 (10 µM),0,0,0,0,0,0,0,0,0,0
CCn1c(-c2nonc2N)nc2cnc(Oc3cccc(NC(=O)c4ccc(OCCN5CCOCC5)cc4)c3)cc21 (10 µM),4,0,0,0,0,0,3,0,0,0
Cc1cc([C@H](C)Nc2ccccc2)c2oc(N3CCOCC3)cc(=O)c2c1 (10 µM),0,0,0,0,0,0,0,0,0,0
COc1cc(N2CCC(N3CCN(C)CC3)CC2)ccc1Nc1ncc(Cl)c(Nc2ccccc2P(C)(C)=O)n1 [Brigatinib] (2 µM),0,0,2,0,1,0,0,0,0,0
O=C(NC(NC(=S)Nc1ccc(F)c([N+](=O)[O-])c1)C(Cl)(Cl)Cl)C(c1ccccc1)c1ccccc1 (stereo not given) (10 µM),0,0,0,0,0,0,0,0,0,0
CS(=O)(=O)c1ccc(-c2cnc(N)c(C(=O)Nc3ccccc3)n2)cc1 (10 µM),0,0,0,0,0,0,0,0,0,0
O=[N+]([O-])c1cc(C(F)(F)F)cc([N+](=O)[O-])c1NNC(=S)Nc1ccc(F)cc1 (10 µM),0,0,0,0,0,0,0,0,0,0
Nc1ncnc2c1ncn2[C@@H]1O[C@H](CO)C[C@H]1O [Cordycepin] (10 µM),0,0,0,0,0,0,0,0,0,0

# Retrieved by structure from the list above (two):
Compound,number of time points [1],number of time points [2],number of time points [3],number of time points [4],number of time points [5],number of time points [6],number of time points [7],number of time points [8],number of time points [9],number of time points [10]
O=C(Nc1cc(Oc2cc(F)c(NC(=O)C3(C(=O)Nc4ccc(F)cc4)CC3)cc2F)ccn1)C1CC1 [Altiratinib] (10 µM),0,0,4,0,0,0,3,0,0,0
Cc1cc([C@H](C)Nc2ccccc2)c2oc(N3CCOCC3)cc(=O)c2c1 (10 µM),0,0,0,0,0,0,0,0,0,0
